Holding throughout (test): glycan array binding signal (z-score within array); higher = stronger binding
Settings in all cases: glycan notation: IUPAC condensed, linker removed

The target in assay [1] is Gal(b1-4)GlcNAc(b1-2)Man(a1-6)[Man(a1-3)]Man(b1-4)GlcNAc(b1-4)GlcNAc. The method in brief: (§1)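 The binding signal is a Z-score computed within each array. Data were drawn from 3228 arrays in the Consortium for Functional Glycomics database, restricted to those with a known protein sequence. Scores were averaged over arrays of the same protein sequence at different concentrations or buffers, and over linkers, and negative values can be taken as non-binding.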

Assay [2] addresses Gal(b1-4)GlcNAc(b1-2)[Gal(b1-4)GlcNAc(b1-4)]Man(a1-3)[Gal(b1-4)GlcNAc(b1-2)Man(a1-6)]Man(b1-4)GlcNAc(b1-4)GlcNAc. The method in brief:
as §1

Assay [3] has as its target Gal(b1-4)GlcNAc(b1-2)[Gal(b1-4)GlcNAc(b1-4)]Man(a1-3)[Gal(b1-4)GlcNAc(b1-2)[Gal(b1-4)GlcNAc(b1-6)]Man(a1-6)]Man(b1-4)GlcNAc(b1-4)GlcNAc. In outline:
as §1

Assay [4] addresses Gal(b1-4)GlcNAc(b1-2)[Gal(b1-4)GlcNAc(b1-4)]Man(a1-3)[GlcNAc(b1-4)][Gal(b1-4)GlcNAc(b1-2)Man(a1-6)]Man(b1-4)GlcNAc(b1-4)GlcNAc. The method in brief:
as §1

In assay [5] the target is Gal(b1-4)GlcNAc(b1-2)[Gal(b1-4)GlcNAc(b1-4)]Man(a1-3)[GlcNAc(b1-4)][Gal(b1-4)GlcNAc(b1-2)[Gal(b1-4)GlcNAc(b1-6)]Man(a1-6)]Man(b1-4)GlcNAc(b1-4)GlcNAc. In outline:
as §1

Assay [6] deals with Gal(b1-4)GlcNAc(b1-2)[Gal(b1-4)GlcNAc(b1-6)]Man(a1-6)[Gal(b1-4)GlcNAc(b1-2)Man(a1-3)]Man(b1-4)GlcNAc(b1-4)GlcNAc. In outline: as §1
The target of assay [7] is Gal(b1-4)GlcNAc(b1-2)[Gal(b1-4)GlcNAc(b1-6)]Man(a1-6)[Gal(b1-4)GlcNAc(b1-2)Man(a1-3)]Man(b1-4)GlcNAc(b1-4)[Fuc(a1-6)]GlcNAc. In outline:
as §1

The target of assay [8] is Gal(b1-4)GlcNAc(b1-2)[Gal(b1-4)GlcNAc(b1-6)]Man(a1-6)[GlcNAc(b1-4)][Gal(b1-4)GlcNAc(b1-2)Man(a1-3)]Man(b1-4)GlcNAc(b1-4)GlcNAc. In outline:
as §1

For assay [9], the target named is Gal(b1-4)GlcNAc(b1-2)[Gal(b1-4)GlcNAc(b1-6)]Man(a1-6)[GlcNAc(b1-4)][Gal(b1-4)GlcNAc(b1-2)[Gal(b1-4)GlcNAc(b1-4)]Man(a1-3)]Man(b1-4)GlcNAc(b1-4)[Fuc(a1-6)]GlcNAc. The method in brief: as §1
Assay [10] deals with Gal(b1-4)GlcNAc(b1-3)Gal(b1-3)GalNAc. In outline: as §1
Assay [11] addresses Gal(b1-4)GlcNAc(b1-3)Gal(b1-3)GlcNAc. The method in brief:
as §1

Assay [12] deals with Gal(b1-4)GlcNAc(b1-3)Gal(b1-4)Glc. The method in brief: as §1
For assay [13], the target named is Gal(b1-4)GlcNAc(b1-3)Gal(b1-4)GlcNAc. In outline: as §1
For assay [14], the target named is Gal(b1-4)GlcNAc(b1-3)Gal(b1-4)GlcNAc(b1-2)Man(a1-3)[Gal(b1-4)GlcNAc(b1-3)Gal(b1-4)GlcNAc(b1-2)Man(a1-6)]Man(b1-4)GlcNAc(b1-4)GlcNAc. The method in brief:
as §1

Assay [15] has as its target Gal(b1-4)GlcNAc(b1-3)Gal(b1-4)GlcNAc(b1-2)Man(a1-3)[Gal(b1-4)GlcNAc(b1-3)Gal(b1-4)GlcNAc(b1-2)Man(a1-6)]Man(b1-4)GlcNAc(b1-4)[Fuc(a1-6)]GlcNAc. In outline:
as §1

For assay [16], the target named is Gal(b1-4)GlcNAc(b1-3)Gal(b1-4)GlcNAc(b1-2)[Gal(b1-4)GlcNAc(b1-3)Gal(b1-4)GlcNAc(b1-6)]Man(a1-6)[Gal(b1-4)GlcNAc(b1-3)Gal(b1-4)GlcNAc(b1-2)Man(a1-3)]Man(b1-4)GlcNAc(b1-4)GlcNAc. The method in brief:
as §1

Assay [17] addresses Gal(b1-4)GlcNAc(b1-3)Gal(b1-4)GlcNAc(b1-2)[Gal(b1-4)GlcNAc(b1-3)Gal(b1-4)GlcNAc(b1-6)]Man(a1-6)[Gal(b1-4)GlcNAc(b1-3)Gal(b1-4)GlcNAc(b1-2)Man(a1-3)]Man(b1-4)GlcNAc(b1-4)[Fuc(a1-6)]GlcNAc. The method in brief: as §1
In assay [18] the target is Gal(b1-4)GlcNAc(b1-3)Gal(b1-4)GlcNAc(b1-3)Gal(b1-4)GlcNAc. In outline:
as §1

The list shows a part of the results.

B1: PX14375A-pdi-503-28-503 (Parabacteroides distasonis) (protein)
chain: PLGSPEAGDISEERQAFLRLTAVYSVMKDFRYTWSMQCFGDVLSNDATYSGSSNDAQTFTLLENYQYQADHTEILNKYRYSYQCINKANLFIRDMEMADDALFSKYDKEQMIGEAKFIRAYTYFELVKTFGGVPCYTGVLDLDHERLGRASVEEIYSVIEQDLNDAVSVLPKKSEVANYESSYAGRITKGAAIAMQTRIYLYEKKYDEVKKAFEKFQNECGGEYSLVAPEDYTWQFSLDGEHCSSSILEVNMYNSSTQSSYNVNNGNRHVLMSMPRNMTIGFGCAQPTQALADAYDAEGDVIRKKTTLLSTEEAIEIETAAKGDVAPVTDDRTGWYNRKLYLAPGQREENRGNNQPTNLRLIRLAEVYLNYAEACYFSGDIANAQKYLNEVRSHVNLAPKNHTGSQLFEDIMNERHLEFGMEGFRFFDVVRVGWGEKVFNGTKKAEFGAKTPFSAGAEVLPIPQTEIDISDGLITN
As to B1, the “glycan array binding signal (z-score)” value is -0.741 in assay [1]; -0.496 in assay [2]; -0.685 in assay [3]; -0.167 in [4]; -0.171 in assay [5]; 0.103 in [6]. The “glycan array binding signal (z-score)” value in [7] is 0.011; in assay [8], -0.235; in [9], -0.729; in assay [10] it was -0.168; in assay [11] it was -0.513; in assay [12], -0.348. Further, the “glycan array binding signal (z-score)” value is -0.064 in assay [13]; 5.38 in [14]; 0.658 in assay [15]; 0.548 in [16]; 0.187 in assay [17]; 0.128 in [18].

The values are drawn from the supplement of paper PMC8728848.
